PubChem BioAssay AID504784 | Drosophila RNAi Screening Center – 2011
The deposit covers about 17,000 reagents; this is an unselected part of those with a known target gene and a result. 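Each column is one replicate's B-score; the combined score over replicates was not deposited, so single values may mislead.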 A plus sign joins genes that one reagent is predicted to hit. Further read-outs or replicates are left out here.

- Aim: 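Genome-wide knock-down for genes giving too much or too little stored lipid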 (primary screen)
- System: Drosophila Kc167 embryonic cells
- Reagent: long dsRNA against Drosophila genes, about 250 ng dsRNA per well
- Duration: 4 days
- Conditions: cells fed 400 µM oleic acid bound to BSA
- Measurement: 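Cells imaged and segmented; ratio of lipid droplet area to nuclear area, log-transformed, then normalised as a B-score over the screen; higher means more stored lipid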
- Reading the numbers: droplet/nuclear area B-score: higher = more stored lipid (overstorage)

For Pdss2 (Decaprenyl diphosphate synthase subunit 2) [DRSC11625], the entry reads droplet/nuclear area B-score, replicate 1 = -0.0732.
Silencing of CG12935 [DRSC06248] resulted in: droplet/nuclear area B-score, replicate 1 = 0.882.
For cathD (cathepsin D) [DRSC07588] the deposit lists droplet/nuclear area B-score, replicate 1 = -0.0442.
Depletion of aqz (aaquetzalli) [DRSC16570] resulted in: droplet/nuclear area B-score, replicate 1 = 0.00141.
Depletion of CG30279 (retired record) [DRSC22417] resulted in: droplet/nuclear area B-score, replicate 1 = 0.00527.
Against CG14626 [DRSC18631], the values are droplet/nuclear area B-score, replicate 1 = 1.06.
CG17350 [DRSC02611] scored droplet/nuclear area B-score, replicate 1 = -0.791.
Knock-down of CG11672 [DRSC14344] resulted in: droplet/nuclear area B-score, replicate 1 = -1.66.
Silencing of CG14618 [DRSC20631] resulted in: droplet/nuclear area B-score, replicate 1 = -0.533.
For CG17974 [DRSC04299], the values are droplet/nuclear area B-score, replicate 1 = 2.58.
With knock-down of Septin4 (Septin 4) [DRSC20205], the record shows droplet/nuclear area B-score, replicate 1 = -1.76.
Tbc1d8-9 (TBC1 domain family member 8/9) [DRSC11820] scored droplet/nuclear area B-score, replicate 1 = -0.00509.
For Su(fu) (Suppressor of fused) [DRSC16871] the deposit lists droplet/nuclear area B-score, replicate 1 = 0.00892.
Silencing of mys (myospheroid) [DRSC18799] resulted in: droplet/nuclear area B-score, replicate 1 = 1.61.
Alp5 (Alkaline phosphatase 5) [DRSC14269] scored droplet/nuclear area B-score, replicate 1 = -1.73.
Lhr (Lethal hybrid rescue) [DRSC06759] gave droplet/nuclear area B-score, replicate 1 = -3.17.
With knock-down of Snx21 (Sorting nexin 21) [DRSC00564], the screen gave droplet/nuclear area B-score, replicate 1 = 0.0318.

Copied from the entries so far, 3 entries:
Su(fu) (Suppressor of fused) [DRSC16871]: droplet/nuclear area B-score, replicate 1 = 0.00892
mys (myospheroid) [DRSC18799]: droplet/nuclear area B-score, replicate 1 = 1.61
Alp5 (Alkaline phosphatase 5) [DRSC14269]: droplet/nuclear area B-score, replicate 1 = -1.73

The listing continues.
Against Nop60B (Nucleolar protein at 60B) [DRSC04627] the deposit lists droplet/nuclear area B-score, replicate 1 = 0.0836.
Depletion of H2.0 (Homeodomain protein 2.0) [DRSC03340] resulted in: droplet/nuclear area B-score, replicate 1 = 1.66.
Depletion of H2.0 (Homeodomain protein 2.0) [DRSC22555] resulted in: droplet/nuclear area B-score, replicate 1 = 0.444.
With knock-down of nord [DRSC04210], the screen gave droplet/nuclear area B-score, replicate 1 = 1.41.
For nord [DRSC04361], the values are droplet/nuclear area B-score, replicate 1 = -2.72.
Sec23 (Secretory 23) [DRSC12387] showed droplet/nuclear area B-score, replicate 1 = -0.543.
mmm (missing minor mitochondria) [DRSC10208] gave droplet/nuclear area B-score, replicate 1 = -0.1.
grp + CG31782 (retired record) [DRSC03541] gave droplet/nuclear area B-score, replicate 1 = -0.834.
For CR14798 (pseudo) [DRSC17956], the entry reads droplet/nuclear area B-score, replicate 1 = -0.551.
CG8046 [DRSC07059] showed droplet/nuclear area B-score, replicate 1 = -2.63.
